According to PubChem BioAssay AID248 (DTP/NCI, 2004):
The list shows only some results of the screen, not a fair sample: it is rich in T/C values a quarter to a half above the control, in often repeated tests (any T/C) and in doses without a T/C. Further doses and runs are listed elsewhere. T/C: endpoint of the treated group in % of that of the vehicle group. Some doses have a count of surviving animals in place of a T/C: the source files T/C as zero there, which appears to mark a toxic dose or a test without result, not a measured value. Some survivor counts are full or nearly so, which does not show that the dose was tolerated: survival well below the control is almost never listed, so the zero probably covers shortened survival too. Counts of survivors are from the toxicity check (mostly the fifth day) where no day follows; animals may have died later. Schedule codes are those of the source, read here as Q, the interval in days (D) or hours (H), X, the number of doses. Some schedule codes hold Z or #, which are not explained here. For survival time, this PubChem deposit counts one and a half times the control or more as active, and values a quarter to a half above the control carry no call in these data; other NCI protocols may use other cut-offs.

Test system: L1210 leukemia ip in BDF1 mice, survival T/C
Experiment: NCI In Vivo Anticancer Drug Screen. Data for tumor model L1210 Leukemia (intraperitoneal) in B6D2F1 (BDF1) mice
Conditions: T/C endpoint: mean survival time, higher T/C = longer survival
[1] = dose: 50.0 mg/kg/injection, schedule: Q01DX Z (ip), vehicle: saline
[2] = dose: 100.0 mg/kg/injection, schedule: Q01DX Z (ip), vehicle: saline

O=C(c1ccccc1)c1ccsc1C(=O)O was tested. Which survivor count (dose: 100.0 mg/kg/injection, schedule: Q04DX002 (ip), vehicle: saline with Tween-80) did it give?
Its survivor count is 3 of 3.

With CC(=O)c1cccc(NC(=O)N2CCN(c3ccccc3)CC2)c1 as the compound, how does the survivor count (dose: 400.0 mg/kg/injection, schedule: Q01DX009 (ip), vehicle: saline with Tween-80) read?
The survivor count was 3 of 6.

How did the survivor count (dose: 100.0 mg/kg/injection, schedule: Q01DX009 (ip), vehicle: saline with Tween-80) turn out when CC(=O)Nc1ccc(N2CCN=N2)cc1 was run?
Its survivor count is 3 of 6.

And the survivor count (dose: 200.0 mg/kg/injection, schedule: Q04DX003 (ip), vehicle: saline with Tween-80)?
Its survivor count is 4 of 6.

What about the survivor count (dose: 400.0 mg/kg/injection, schedule: Q04DX003 (ip), vehicle: saline with Tween-80) of the same compound?
Its survivor count is 2 of 6.

Which survivor count (dose: 200.0 mg/kg/injection, schedule: Q01DX001 (ip), vehicle: saline) does the source give for CCC1=CC2CC3(C(=O)OC)c4[nH]c5ccccc5c4CC[N+](Cc4ccccc4)(C2)C13 (stereo unspecified) here?
The survivor count was 3 of 6.

And the survivor count (dose: 400.0 mg/kg/injection, schedule: Q01DX001 (ip), vehicle: saline)?
The survivor count was 1 of 6.

COc1cccc2c1C(=O)c1c(O)c3c(c(O)c1C2=O)C[C@@](O)(C(C)=O)C[C@@H]3OC1CC(NC(=S)Nc2ccc(F)cc2)C(O)C(C)O1 (stereo partly specified) was tested. Which T/C (dose: 21.0 mg/kg/injection, schedule: Q04DX003 (ip), vehicle: other) did it give?
The T/C was 138 % of control.

What about the T/C (dose: 32.0 mg/kg/injection, schedule: Q04DX003 (ip), vehicle: other) of the same compound?
Its T/C is 130 % of control.

What about the T/C (dose: 32.0 mg/kg/injection, schedule: Q04DX003 (ip), vehicle: water) of the same compound?
Its T/C is 127 % of control.

What about the T/C (dose: 48.0 mg/kg/injection, schedule: Q04DX003 (ip), vehicle: other) of the same compound?
Its T/C is 130 % of control.

Which T/C [1] does the source give for Cc1c2c(cc3c1[nH]c1ccccc13)C(C)N(C)CC2 (stereo unspecified) here?
The T/C was 144 % of control.

And the T/C [2]?
The T/C was 145 % of control.

And the survivor count (dose: 375.0 mg/kg/injection, schedule: Q01DX001 (ip), vehicle: carboxymethylcellulose (CMC))?
Its survivor count is 2 of 6.

Which survivor count (dose: 200.0 mg/kg/injection, schedule: Q01DX009 (ip), vehicle: saline) does the source give for CC(=O)SC1CC(=O)OC1=O (stereo unspecified) here?
The survivor count was 6 of 6.

With CNC1CC(N)C(O)C(OC2OC(CO)C(O)C3OC4(OC(C(N)CO)C(O)C(O)C4O)OC23)C1O (stereo unspecified) as the compound, how does the survivor count (dose: 7.6 mg/kg/injection, schedule: Q01DX Z (ip), vehicle: saline) read?
The survivor count was 0 of 6.

What about the survivor count (dose: 11.0 mg/kg/injection, schedule: Q01DX Z (ip), vehicle: saline) of the same compound?
Its survivor count is 0 of 6.

And the survivor count (dose: 17.0 mg/kg/injection, schedule: Q01DX Z (ip), vehicle: saline)?
Its survivor count is 0 of 6.

What about the survivor count (dose: 25.0 mg/kg/injection, schedule: Q01DX Z (ip), vehicle: saline) of the same compound?
Its survivor count is 0 of 6.

And the survivor count [1]?
Its survivor count is 0 of 6.

What about the survivor count [2] of the same compound?
The survivor count was 0 of 6.

What about the survivor count (dose: 200.0 mg/kg/injection, schedule: Q01DX Z (ip), vehicle: saline) of the same compound?
Its survivor count is 0 of 6.

Which survivor count (dose: 400.0 mg/kg/injection, schedule: Q01DX001 (ip), vehicle: Klucel (hydroxypropylcellulose) (HPC)) does the source give for Nc1nc(N)c(CCCOc2ccccc2Cl)c(N)n1 here?
Its survivor count is 2 of 6.

For COC1OC(CCl)C(Cl)C(OS(=O)(=O)c2ccc(C)cc2)C1OS(=O)(=O)c1ccc(C)cc1 (stereo unspecified), which survivor count (dose: 200.0 mg/kg/injection, schedule: Q04DX002 (ip), vehicle: Klucel (hydroxypropylcellulose) (HPC)) is on record?
Its survivor count is 3 of 3.

With CCOc1cc(C)c2cccc(C)c2n1 as the compound, how does the survivor count (dose: 400.0 mg/kg/injection, schedule: Q01DX001 (ip), vehicle: other) read?
Its survivor count is 4 of 4.

ClC(c1ccccc1)C1(Br)C=c2ccccc2=C1 (stereo unspecified) was tested. Which survivor count (dose: 400.0 mg/kg/injection, schedule: Q01DX009 (ip), vehicle: Klucel (hydroxypropylcellulose) (HPC)) did it give?
Its survivor count is 5 of 6.
